Measurements reported in PubChem BioAssay AID504791 (Drosophila RNAi Screening Center, 2011).
Assay: 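Genes whose knock-down strengthens or weakens small-RNA reporter silencing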 (primary screen). System: Drosophila S2-derived reporter cells. Reagents: long dsRNA against Drosophila genes, about 150-250 ng dsRNA per well (siRNA assay); about 80-120 ng (miRNA assay). Timing: about 5 days (siRNA assay); about 4 days (miRNA assay). Treatment: copper sulfate induction of reporters: 25 µM (siRNA assay); 200 mM stated (miRNA assay), 1-2 days before reading. Detection: 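Dual luciferase assay: Renilla to firefly signal ratio in each well, scaled to the mean ratio of its plate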. Direction: siRNA reporter hit score: higher = 3 marks a strong hit with raised ratio; -3 a strong hit with lowered ratio. Hit rule: 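First-pass picks had plate-scaled ratios over 1.5 for the siRNA assay, over 1.6 for the miRNA assay, or under 0.6; two distinct dsRNAs had to score alike on retest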.
In all, the deposit lists about 23,000 reagents; shown is an unselected part of those that have a named target and a result. Of all reagents, 199 (0.86%) got an active call. 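Plate-scaled ratios behind the calls are not deposited; printed light signals are raw; many rows marked increased or decreased are still called inactive.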 Names joined by + are all predicted targets of the reagent.

Gene	dsRNA	siRNA reporter hit score	stable siRNA reporter change	miRNA reporter change	stable assay Renilla, run 1 (luminescence)	stable assay firefly, run 1 (luminescence)	outcome
CG13837	DRSC14687				5379	2.90e5	inactive
stx	DRSC18442				3971	2.60e5	inactive
stx	DRSC18443				4388	2.97e5	inactive
stx	DRSC23075				7172	4.65e5	inactive
CG34115	DRSC03840				7995	5.59e5	inactive
cbt	DRSC00655				35958	3.73e5	inactive
fidipidine	DRSC07618				6779	2.58e5	inactive
tex	DRSC16517				8631	4.41e5	inactive
Sr-CI	DRSC00790				3220	3.89e5	inactive
CG18788	DRSC02697				7832	5.16e5	inactive
Nach	DRSC07478				5654	3.03e5	inactive
mats	DRSC13562				3799	3.62e5	inactive
mats	DRSC14702				8114	3.79e5	inactive
CG3176 + CR18166 + CG32817	DRSC17271				7176	3.36e5	inactive
CG3176 + CR18166 + CG32817	DRSC17282				6672	2.61e5	inactive
CG3176 + CR18166 + CG32817	DRSC18288				9707	5.37e5	inactive
mahj	DRSC04053				91643	1.60e6	inactive
CG42594	DRSC18053	3	reporter ratio raised past the hit cutoff		4668	1.47e5	inactive
CG42594	DRSC18408				5991	2.79e5	inactive
CG42594	DRSC22978				4311	4.12e5	inactive
CG33543	DRSC00384				7534	4.17e5	inactive
CG33543	DRSC00385				7656	5.41e5	inactive
Cyp6a9	DRSC07385				7620	4.14e5	inactive
stc	DRSC03620				3.44e5	1.63e6	inactive
CG13731	DRSC10059				7139	4.49e5	inactive
hbs	DRSC07627				6523	3.22e5	inactive
comm3	DRSC09993				8826	4.13e5	inactive
comm3	DRSC09994				8064	3.68e5	inactive
comm3	DRSC09995			reporter ratio raised past the hit cutoff	8806	3.41e5	inactive
CG34202	DRSC05907				6698	6.12e5	inactive
Jupiter	DRSC15204				8032	5.12e5	inactive
Jupiter	DRSC15205				5978	3.60e5	inactive
Jupiter	DRSC15389				6275	3.23e5	inactive
bys	DRSC18748				6892	3.94e5	inactive
CG10581	DRSC11623				7851	4.26e5	inactive
I-2	DRSC11194				6435	4.11e5	inactive
I-2	DRSC23300				5515	4.02e5	inactive
CNPYb	DRSC09845				7966	2.72e5	inactive
CG4829	DRSC19920				8377	4.66e5	inactive
CG33493	DRSC10642				5496	3.16e5	inactive
CG7298	DRSC10802				9236	3.67e5	inactive
P58IPK	DRSC16404				7087	4.35e5	inactive
CG15282	DRSC22620				2379	2.58e5	inactive
CG15282	DRSC23090				3659	2.66e5	inactive
Sar1	DRSC17049				8471	3.13e5	inactive
Sar1	DRSC22115				5246	4.16e5	inactive
Jon25Biii	DRSC03115				7562	4.17e5	inactive
Caf1-105	DRSC06209				7072	3.35e5	inactive
Cyp6a20	DRSC07380				8135	4.45e5	inactive
CG13127	DRSC02223				7751	4.20e5	inactive
CG5276	DRSC15759				6735	3.67e5	inactive
CG6761	DRSC10705				8677	4.02e5	inactive
CanB2	DRSC07355				2648	2.72e5	inactive
Z600	DRSC11317				7302	4.83e5	inactive
CG7810	DRSC03072				35238	4.62e5	inactive
PolZ2	DRSC12325				6871	3.94e5	inactive
CG34030	DRSC08866				4791	3.59e5	inactive
robl22E	DRSC00289				8151	4.09e5	inactive
CG2003	DRSC15411				6467	3.46e5	inactive
CG17343	DRSC02606				6463	4.45e5	inactive
CG17343	DRSC22807				3504	3.02e5	inactive
CG18404	DRSC15323				6120	3.84e5	inactive
PGRP-SD	DRSC10856				6162	2.88e5	inactive
CG16863	DRSC01892				6858	3.84e5	inactive
Kul	DRSC15404				6751	3.57e5	inactive
MsrA	DRSC11159				7070	4.92e5	inactive
CG14196	DRSC19551				5542	4.07e5	inactive
P5cr	DRSC16782				8354	3.91e5	inactive
Abd-B	DRSC14098				6571	4.21e5	inactive
Abd-B	DRSC14337				6863	3.36e5	inactive
Dbp73D	DRSC11142				11863	6.26e5	inactive
Cngl	DRSC20318				6755	6.53e5	inactive
Nepl15	DRSC15630				10037	3.53e5	inactive
CG4020	DRSC18337				6143	3.23e5	inactive
alien + CG17906	DRSC02641				6878	3.43e5	inactive
Best1	DRSC16909				3619	3.58e5	inactive
CG1986	DRSC18197				4623	3.02e5	inactive
CG42505 + CG42504 + CG31358	DRSC15235				9252	4.59e5	inactive
CG42505 + CG42504 + CG31358	DRSC15308				5943	6.21e5	inactive
CG42505 + CG42504 + CG31358	DRSC15309				7039	4.12e5	inactive
TBC1d7	DRSC15985				7558	2.90e5	inactive
CG11226	DRSC11639				7639	3.95e5	inactive
Or13a	DRSC20265				4660	3.58e5	inactive
Mnn1	DRSC03368				6983	4.02e5	inactive
CG4679	DRSC06880				5379	3.80e5	inactive
CG11373	DRSC12170				7330	4.20e5	inactive
CG9899	DRSC04597				5056	3.31e5	inactive
Ssadh	DRSC15621				8467	5.37e5	inactive
GM130	DRSC04617				7683	6.25e5	inactive
CG42813 + CG42814	DRSC15939				7388	3.84e5	inactive
CG42813 + CG42814	DRSC15940				6708	3.87e5	inactive
eEF1delta	DRSC02790				16816	4.59e5	inactive
Sdc	DRSC04654				5098	3.34e5	inactive
Cph	DRSC17507				4698	3.65e5	inactive
Cph	DRSC18434				5699	2.31e5	inactive
Rh7	DRSC10529				8106	3.91e5	inactive
Ilk	DRSC11868				4668	4.74e5	inactive
lz	DRSC18790				5510	3.64e5	inactive
lz	DRSC22302				8418	4.52e5	inactive
CG4896	DRSC00671				32456	4.00e5	inactive
CG33454	DRSC22914				2300	2.79e5	inactive
CG34038	DRSC04039				5744	4.54e5	inactive
CG31522	DRSC12005				4912	4.03e5	inactive
CG8204	DRSC07106				7196	3.26e5	inactive
CG14947	DRSC02429				7631	4.01e5	inactive
eRF3	DRSC03322				5807	3.53e5	inactive

Limited to “stable assay firefly, run 1 (luminescence)” (17 entries from above):
alien + CG17906 [DRSC02641]	3.43e5
Best1 [DRSC16909]	3.58e5
CG1986 [DRSC18197]	3.02e5
CG42505 + CG42504 + CG31358 [DRSC15235]	4.59e5
CG42505 + CG42504 + CG31358 [DRSC15308]	6.21e5
CG42505 + CG42504 + CG31358 [DRSC15309]	4.12e5
TBC1d7 [DRSC15985]	2.90e5
CG11226 [DRSC11639]	3.95e5
Or13a [DRSC20265]	3.58e5
Mnn1 [DRSC03368]	4.02e5
CG4679 [DRSC06880]	3.80e5
CG11373 [DRSC12170]	4.20e5
CG9899 [DRSC04597]	3.31e5
Ssadh [DRSC15621]	5.37e5
GM130 [DRSC04617]	6.25e5
CG42813 + CG42814 [DRSC15939]	3.84e5
CG42813 + CG42814 [DRSC15940]	3.87e5
